Laboratory results as given in paper PMC7819943, “Rice protein-binding microarrays: a tool to detect cis-acting elements near promoter regions in rice”.
The other results are listed elsewhere or left out.

Sequences of proteins named here, by UniProt entry; tags and fusion partners are left off.
UniProt Q0JBA9, entry or part of it: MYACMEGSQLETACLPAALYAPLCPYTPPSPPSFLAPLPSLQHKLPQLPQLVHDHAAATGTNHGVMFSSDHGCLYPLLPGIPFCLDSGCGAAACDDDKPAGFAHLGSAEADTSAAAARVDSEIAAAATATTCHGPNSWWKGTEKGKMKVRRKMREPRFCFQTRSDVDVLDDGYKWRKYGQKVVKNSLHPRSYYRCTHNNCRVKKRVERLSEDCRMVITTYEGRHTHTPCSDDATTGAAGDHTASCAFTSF

What follows are sequences tested against OsWRKY34 (Oryza sativa, UniProt Q0JBA9 1-250) (assay: protein-binding microarray (RPBM); PBS, 2% BSA, 51.3 ng/ul salmon testes DNA, 50 uM zinc acetate, 200 nM TF, 25 C, 1 h; high values mean tight binding). Conditions: protein: recombinant; tags: N-terminal polyhistidine and DsRed monomer fusion (pET32a); label: CyDye5-dUTP incorporated in the synthesized complementary strand; 3' TTTTT single-stranded linker to array surface; dsDNA, one strand shown.
Method in brief: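 Binding signal is defined as the fluorescence intensity of each feature in arbitrary units, read on an Axon 4000B scanner. Transcription factors with N-terminal polyhistidine and DsRed fusions came from E. coli BL21-CodonPlus and were purified on Ni–NTA. They were incubated at 200 nM for 1 h at 25 °C on a custom Agilent array that had been made double-stranded with Cy5-dUTP, with 50 µM zinc acetate present, and the array was washed.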
For “TCCCTTGTAGTATATTGTTCAGCCTTGACTTTAAAACCACCGGAGTCACCTAGTGCAG”, the binding signal was 8820 fluorescence intensity (a.u.). With “TCAGTCATCGTAAATTATTGTGATTTTTTAGGGAGGGGTGCGGAGTCACCTAGTGCAG” the binding signal was 9130 fluorescence intensity (a.u.). “ATATGTTTTTCCTGTGTTTTGATTTCCTCTGTTTTACACTCGGAGTCACCTAGTGCAG” was tested, and the binding signal was 9710 fluorescence intensity (a.u.). With “CACATCCGGCACCTGCCATAGTCGACATGTAAATAAAATACGGAGTCACCTAGTGCAG” the binding signal was 8490 fluorescence intensity (a.u.). In the case of “ATAAGTGCAGCCGTGGATATCCGTGCCCAACGTTTGACCGCGGAGTCACCTAGTGCAG”, the binding signal was 9080 fluorescence intensity (a.u.). For “GCTCACTGCCTAACGGCCTCATCTACAACTGGTGCTACCGCGGAGTCACCTAGTGCAG”, the binding signal was 8900 fluorescence intensity (a.u.). With “CTTTGTCAGATGGTCCTGGGTGTTGCTTCATATATTTGACCGGAGTCACCTAGTGCAG” the binding signal was 9330 fluorescence intensity (a.u.). For “CATCTGGTGACTTACTAATCTACTGTGTTCCTTTTCCAGGCGGAGTCACCTAGTGCAG”, the binding signal was 10300 fluorescence intensity (a.u.). With “CACCGCATCACCTTGTCCACCTCGTCGTCCTCGTCCTCGTCGGAGTCACCTAGTGCAG” the binding signal was 15800 fluorescence intensity (a.u.). With “AATACTCATCTCCGGAATGCTCACACGGCTAGTCATTTCTCGGAGTCACCTAGTGCAG” the binding signal was 8330 fluorescence intensity (a.u.). With “GTCCCAGATGCGCGCGTGTCGCTCCTCATCCTCTCCCGCACGGAGTCACCTAGTGCAG” the binding signal was 8380 fluorescence intensity (a.u.). For “GCCTCGTCGTCTTCCAGCCGGGTTGTGCGGGGCCCCGCTCCGGAGTCACCTAGTGCAG”, the binding signal was 11800 fluorescence intensity (a.u.). “TATCGTATGTACTCTTCATTCTCTACTCCTGCCCGGAAACCGGAGTCACCTAGTGCAG” was tested, and the binding signal was 12000 fluorescence intensity (a.u.). With “CTCTTCGAGGACACCAACCTCTGCGCCATCCACGCCAAGCCGGAGTCACCTAGTGCAG” the binding signal was 10400 fluorescence intensity (a.u.). For “ATTCCCCATTTCCTTTTTCCCCTTTTGTTGAGAGGGGAATCGGAGTCACCTAGTGCAG”, the binding signal was 10500 fluorescence intensity (a.u.). With “TCATTACTGTTTTTCATCGTTTCTGTTCTGAAAATTTCATCGGAGTCACCTAGTGCAG” the binding signal was 9060 fluorescence intensity (a.u.). For “CCCCGTCGCCCTTGCCCCACACCCAGGCGCCGCCGTCGACCGGAGTCACCTAGTGCAG”, the binding signal was 10100 fluorescence intensity (a.u.). With “GTATCTCTGCAGCTGACCTGGCCAATCTTTGTTCCTTGCTCGGAGTCACCTAGTGCAG” the binding signal was 14700 fluorescence intensity (a.u.). For “GGCCATTTATCCATTTGGAGGTCAGTGCTAGTCCACCTCTCGGAGTCACCTAGTGCAG”, the binding signal was 8560 fluorescence intensity (a.u.). For “TGAGTTATTTTGCGTGTGACCTTGCTTACAGAGTTCCAGTCGGAGTCACCTAGTGCAG”, the binding signal was 9180 fluorescence intensity (a.u.). In the case of “GTGGCCTAACTTGACCTTACCAATTTTTGTCAATACCAAACGGAGTCACCTAGTGCAG”, the binding signal was 8490 fluorescence intensity (a.u.). “TTTCTTTTGAGTCTTTATCTCTCTTCTAATTCATGTGTTTCGGAGTCACCTAGTGCAG” was tested, and the binding signal was 8480 fluorescence intensity (a.u.). “ACGGCCACGCCTCGCGTCGTCATAGTCGTCTTCCTCGATCCGGAGTCACCTAGTGCAG” was tested, and the binding signal was 11300 fluorescence intensity (a.u.). With “CTGCAATCTAGCCATCTGTTATCTATCCATGCATCGATGTCGGAGTCACCTAGTGCAG” the binding signal was 8120 fluorescence intensity (a.u.). With “TAGTCGGGTGGATTTATTTGGGTGGATGAACATCAATATACGGAGTCACCTAGTGCAG” the binding signal was 8270 fluorescence intensity (a.u.). In the case of “CCACCCGCCACCTGCTGCCTGCCGCCGGCCTCCCCTCACCCGGAGTCACCTAGTGCAG”, the binding signal was 12400 fluorescence intensity (a.u.). With “GTGTGTGTTGTAAGCGTTTATTTTTCTACTTTGTTTGCAGCGGAGTCACCTAGTGCAG” the binding signal was 9500 fluorescence intensity (a.u.). With “ACATTTTGACTTTTGCCAAAGTCAAACTGCTTTAAGTTTGCGGAGTCACCTAGTGCAG” the binding signal was 11900 fluorescence intensity (a.u.). With “CAGCTTGAGTCTTCAGTTTGTTAGTTCAGCTAGTTTTCCTCGGAGTCACCTAGTGCAG” the binding signal was 9020 fluorescence intensity (a.u.). With “GGAGTACTTGTATGCTGTTGTCTGAGGCTATGTTTATTTCCGGAGTCACCTAGTGCAG” the binding signal was 9620 fluorescence intensity (a.u.). “GCTTATAGGTAGCTTTTGTTATTTCTTTGCTGCTATGAATCGGAGTCACCTAGTGCAG” was tested, and the binding signal was 8150 fluorescence intensity (a.u.). “GCATTTCTGTTGACTCTCGCTCGCTTATCATCGTATAGACCGGAGTCACCTAGTGCAG” was tested, and the binding signal was 10200 fluorescence intensity (a.u.). In the case of “TATCAATTTACTGCTGATTTTGACTTTGTACATTCCGTTTCGGAGTCACCTAGTGCAG”, the binding signal was 8130 fluorescence intensity (a.u.). “GGTTATTGCTCTGTACAAGCTAGCTACTTTTTATAACCATCGGAGTCACCTAGTGCAG” was tested, and the binding signal was 9810 fluorescence intensity (a.u.). “ACGCTGCCGTCTCATTTCGCTTTCGTAGAACTTGCTCCAGCGGAGTCACCTAGTGCAG” was tested, and the binding signal was 8500 fluorescence intensity (a.u.). “AAAAGCCGGTCTCCTTCATCTTCCCGTCCGTAAACCCTAACGGAGTCACCTAGTGCAG” was tested, and the binding signal was 10600 fluorescence intensity (a.u.). “TATACTAATGACTCTTCTTGTGCATATCTTCTCCTTCTCTCGGAGTCACCTAGTGCAG” was tested, and the binding signal was 10300 fluorescence intensity (a.u.). With “GGGTTATTCTTTGCATGATATTTGACGTTTTTTCTCGCTGCGGAGTCACCTAGTGCAG” the binding signal was 9920 fluorescence intensity (a.u.). In the case of “CATATGTTGGGATCCTCCTCGTCGATTTTCTTGGTTCTTTCGGAGTCACCTAGTGCAG”, the binding signal was 8480 fluorescence intensity (a.u.). In the case of “CGCTGAGCTTTGTGTTGCTTTTGGTCTCCTAGATAGGTTTCGGAGTCACCTAGTGCAG”, the binding signal was 10200 fluorescence intensity (a.u.). In the case of “CAGCCACTTACACAGTAGTTACACCTCATTTACACACACTCGGAGTCACCTAGTGCAG”, the binding signal was 9340 fluorescence intensity (a.u.). In the case of “GCTCTCCCGACTTGTCTAAGCCCTTTATTTGCTTATGATTCGGAGTCACCTAGTGCAG”, the binding signal was 8590 fluorescence intensity (a.u.).
